Test results reported in patent EP2767286B1, “ORAL PHARMACEUTICAL COMPOSITION FOR THE TREATMENT OF INFLAMMATORY GASTROINTESTINAL DISEASES” (Obshestvo S Ogranichennoj Otvetstvennostju "CytoNIR", priority 2011, dated 2018).
At least one structure is not confirmed: it was looked up by name or label, or the drawing left a doubt. Marks after values point to notes of the source that are not given here.

System: Versuchsmodell der toxischen Hepatitis
Assay: Hepatoprotective activity in the experimental model of toxic hepatitis (TCM)
Assay type: in vivo, Ratten der Linie Sprague-Dawley
From the text: Beispiel 2 Bewertung der hepatoprotektiven Aktivität der erfindungsgemäßen pharmazeutischen Zubereitung bei Verabreichung am Versuchsmodell der toxischen Hepatitis.
Jede Versuchsgruppe zählte 10 Tiere. Die zu untersuchenden Präparate wurden den Ratten in Form von Wasserlösung intragastrisch mit einer atraumatischen Metallsonde eingeführt. Die Referenztiere bekamen Reinwasser verabreicht.
Als Vergleichspräparat wurde bei der Untersuchung der hepatoprotektiven Aktivität das Präparat Silibinin in Kapseln, Fabrikat Rosa-Phytopharm (Bulgarien) verwendet. in der gleichen Menge wie das Volumen der hepatoprotektiven Mittel behandelt. Die hepatoprotektive Aktivität wurde 7 und 14 Tage ab Anfang der Behandlung bewertet. Im Blutserum wurden die Aktivität von Aspartat-Amino-transferase (ASAT), Alanin-Aminotransferase (ALT), alkalische Phosphatase sowie der Cholesterinspiegel, Triglyzeridespiegel ermittelt. […]
Die statistische Datenverarbeitung wurde anhand der handelsüblichen Software Microsoft Excel durchgeführt. Die Unterschiede zwischen den Stichproben wurden anhand des Student t-Tests bewertet. […] Die Angaben sind in der Tabelle 3 aufgeführt. Tabelle 3. […] Tag […]

## COc1cc(C2Oc3cc([C@H]4Oc5cc(O)cc(O)c5C(=O)[C@@H]4O)ccc3OC2CO)ccc1O (some centres unmarked) [Silibinin]
Silibinin group
  Todesfälle: keine Todesfälle
TCM + 100 mg/kg, 14. Tag
  Todesfälle, abs. (%): 0/10*
